Data source: PubChem BioAssay AID1259254 (NCATS, 2017)
Assay: 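Gene knock-downs that lead to re-replication, shown by excess G2 DNA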 (primary screen). Cells: human HCT116 colorectal cancer cells. Reagent: single siRNA against human genes. Time to read-out: 3 days. Measured: 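Nuclei stained with Hoechst and imaged; cell-cycle phase assigned by DNA content; G2 share scaled per plate, non-targeting siRNA 0%, GMNN siRNA 100%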. Reading the numbers: G2 robust z-score and G2 cells, % of GMNN control: higher = more G2 cells, more excess DNA replication; raw share of cells in G2: higher = larger share of cells with G2 DNA content. Call rule: 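Active siRNAs have a G2 robust z of 5 or more median absolute deviations over the median, which in these data means about 38% or higher of GMNN control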.
This is an unselected part of about 59,000 reagents. About 1,550 of them (2.6%) were called active. 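G2 share is only a proxy for re-replication; each gene was hit by three separate siRNAs, and active genes were retested.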 Raw values are not corrected between plates. Not stated in the record: the amount of reagent.

gene knocked down	PubChem SID	G2 robust z-score	G2 cells, % of GMNN control	raw share of cells in G2 (%)	outcome
VBP1 (VHL binding protein 1)	SID160718715	-0.271	1.06	3.88	inactive
VBP1 (VHL binding protein 1)	SID160718716	0.649	7.53	8.38	inactive
VBP1 (VHL binding protein 1)	SID160718717	-0.328	0.663	3.35	inactive
FAT1 (FAT atypical cadherin 1)	SID160764021	0.462	6.22	7.5	inactive
FAT1 (FAT atypical cadherin 1)	SID160764032	0.0882	3.59	6.63	inactive
FAT1 (FAT atypical cadherin 1)	SID160764039	2.37	19.6	10.6	inactive
BCL7B (BAF chromatin remodeling complex subunit BCL7B)	SID160721860	-0.738	-2.23	4.32	inactive
BCL7B (BAF chromatin remodeling complex subunit BCL7B)	SID160721861	-0.246	1.24	4.46	inactive
BCL7B (BAF chromatin remodeling complex subunit BCL7B)	SID160735203	-0.633	-1.49	2.86	inactive
CEP104 (centrosomal protein 104)	SID160722929	-0.945	-3.68	3.67	inactive
CEP104 (centrosomal protein 104)	SID160722930	-0.432	-0.0715	3.91	inactive
CEP104 (centrosomal protein 104)	SID160722931	-1.14	-5.08	1.56	inactive
RNF146 (ring finger protein 146)	SID160751013	-0.251	1.2	4.51	inactive
RNF146 (ring finger protein 146)	SID160751014	1.45	13.2	7.36	inactive
RNF146 (ring finger protein 146)	SID160751015	-0.321	0.711	2.62	inactive
HMGCLL1 (3-hydroxy-3-methylglutaryl-CoA lyase like 1)	SID160741826	-0.775	-2.49	4.82	inactive
HMGCLL1 (3-hydroxy-3-methylglutaryl-CoA lyase like 1)	SID160741828	0.476	6.32	6.58	inactive
HMGCLL1 (3-hydroxy-3-methylglutaryl-CoA lyase like 1)	SID160741829	0.434	6.02	6.11	inactive
SHH (sonic hedgehog signaling molecule)	SID160716694	5.95	44.8	21.2	active
SHH (sonic hedgehog signaling molecule)	SID160716695	-0.924	-3.54	3.66	inactive
SHH (sonic hedgehog signaling molecule)	SID160716696	2.87	23.2	12.6	inactive
SERPINE1 (serpin family E member 1)	SID160713799	-0.55	-0.903	2.89	inactive
SERPINE1 (serpin family E member 1)	SID160713800	7.37	54.8	25.9	active
SERPINE1 (serpin family E member 1)	SID160713801	-0.14	1.98	5.56	inactive
IFI35 (interferon induced protein 35)	SID160775556	-0.419	0.0177	3.47	inactive
IFI35 (interferon induced protein 35)	SID160775557	-0.241	1.27	5.44	inactive
IFI35 (interferon induced protein 35)	SID160775558	1.58	14.1	8.21	inactive
BTD (biotinidase)	SID160729120	2.22	18.6	11	inactive
BTD (biotinidase)	SID160729126	0.531	6.7	6.49	inactive
BTD (biotinidase)	SID160729135	1.95	16.7	11	inactive
LRRN2 (leucine rich repeat neuronal 2)	SID160728440	-0.0439	2.66	6.85	inactive
LRRN2 (leucine rich repeat neuronal 2)	SID160728441	2.53	20.8	10.6	inactive
LRRN2 (leucine rich repeat neuronal 2)	SID160730437	-1.07	-4.59	4.67	inactive
RRAGD (Ras related GTP binding D)	SID160746922	0.618	7.31	6.93	inactive
RRAGD (Ras related GTP binding D)	SID160746923	-0.583	-1.14	3.81	inactive
RRAGD (Ras related GTP binding D)	SID160746924	2.67	21.8	14.7	inactive
CIRBP-AS1 (CIRBP antisense RNA 1)	SID160732553	-0.37	0.364	3.2	inactive
CIRBP-AS1 (CIRBP antisense RNA 1)	SID160758634	-0.428	-0.0473	3.81	inactive
CIRBP-AS1 (CIRBP antisense RNA 1)	SID160758635	-0.987	-3.98	1.68	inactive
POLR3D (RNA polymerase III subunit D)	SID160728506	-0.134	2.03	5.41	inactive
POLR3D (RNA polymerase III subunit D)	SID160728516	-1.16	-5.21	3.22	inactive
POLR3D (RNA polymerase III subunit D)	SID160728526	-0.647	-1.58	3.4	inactive
ST6GALNAC4 (ST6 N-acetylgalactosaminide alpha-2,6-sialyltransferase 4)	SID160738347	1.5	13.5	12.3	inactive
ST6GALNAC4 (ST6 N-acetylgalactosaminide alpha-2,6-sialyltransferase 4)	SID160738348	2.59	21.2	11.2	inactive
ST6GALNAC4 (ST6 N-acetylgalactosaminide alpha-2,6-sialyltransferase 4)	SID160738349	-1.58	-8.18	1.31	inactive
FASTKD3 (FASTK mitochondrial RNA regulator 3)	SID160748580	0.191	4.31	6.46	inactive
FASTKD3 (FASTK mitochondrial RNA regulator 3)	SID160748582	-0.365	0.4	4.79	inactive
FASTKD3 (FASTK mitochondrial RNA regulator 3)	SID160748583	0.828	8.8	5.02	inactive

7 entries from above, arranged by “G2 cells, % of GMNN control”, highest first.
gene knocked down	PubChem SID	G2 robust z-score	G2 cells, % of GMNN control	raw share of cells in G2 (%)	outcome
SERPINE1 (serpin family E member 1)	SID160713800	7.37	54.8	25.9	active
SHH (sonic hedgehog signaling molecule)	SID160716696	2.87	23.2	12.6	inactive
SERPINE1 (serpin family E member 1)	SID160713801	-0.14	1.98	5.56	inactive
IFI35 (interferon induced protein 35)	SID160775557	-0.241	1.27	5.44	inactive
IFI35 (interferon induced protein 35)	SID160775556	-0.419	0.0177	3.47	inactive
SERPINE1 (serpin family E member 1)	SID160713799	-0.55	-0.903	2.89	inactive
SHH (sonic hedgehog signaling molecule)	SID160716695	-0.924	-3.54	3.66	inactive
